Changes are numbered by the printed parent chain. Results are given in words; binding and its absence hold for the method and conditions named. Some binding calls cover weakened binding; strength is not graded here.

By UniProt entry, the sequences of proteins in these tests, tags left out. Residues count along the entry.
UniProt P08581, residues 25-932: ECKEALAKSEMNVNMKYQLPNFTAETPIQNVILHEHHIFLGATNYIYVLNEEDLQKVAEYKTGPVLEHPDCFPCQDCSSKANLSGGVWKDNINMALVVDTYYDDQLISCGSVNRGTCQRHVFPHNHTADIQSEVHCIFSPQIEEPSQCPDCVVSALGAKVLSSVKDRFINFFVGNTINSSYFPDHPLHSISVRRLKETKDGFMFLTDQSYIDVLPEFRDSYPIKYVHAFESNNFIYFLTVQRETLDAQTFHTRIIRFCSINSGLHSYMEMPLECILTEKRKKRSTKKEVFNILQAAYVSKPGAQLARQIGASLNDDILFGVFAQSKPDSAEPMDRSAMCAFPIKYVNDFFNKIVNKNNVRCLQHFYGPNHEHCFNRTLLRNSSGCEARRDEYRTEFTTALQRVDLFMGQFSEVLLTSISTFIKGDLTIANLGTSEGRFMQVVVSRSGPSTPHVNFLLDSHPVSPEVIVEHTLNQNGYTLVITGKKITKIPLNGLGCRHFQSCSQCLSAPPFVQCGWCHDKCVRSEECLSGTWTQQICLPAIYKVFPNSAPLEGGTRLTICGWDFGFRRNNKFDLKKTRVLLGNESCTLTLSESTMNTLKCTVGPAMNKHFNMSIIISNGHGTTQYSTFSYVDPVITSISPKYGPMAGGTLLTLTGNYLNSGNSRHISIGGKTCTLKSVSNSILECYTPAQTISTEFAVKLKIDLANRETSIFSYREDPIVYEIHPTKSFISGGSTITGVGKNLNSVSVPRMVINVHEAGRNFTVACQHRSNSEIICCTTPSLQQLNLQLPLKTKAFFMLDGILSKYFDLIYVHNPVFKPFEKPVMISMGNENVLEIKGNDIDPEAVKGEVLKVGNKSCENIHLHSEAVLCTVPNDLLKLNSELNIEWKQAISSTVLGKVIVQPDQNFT

B1: VH4/Vk2 (antibody, V domains shown)
VH: QVQLVQSGAEVKKPGSSVKVSCQGSGYSFPTHWITWVRQAPGQGLEWMGTIDPTDSYNFYGPSFQGRVTITADSSTSTAYMELSSLRSEDTAMYYCARDGNYYDSRGYYYDTFDMWGQGTLVTVSS
VL: DIQMTQSPSSLSASVGDRVTITCRASQGISTYLAWYQQKPGKAPKLLIYSASTLESGVPSRFSGSGSGTDFTLTISSLQPEDFATYYCQQADSFPLTFGGGTKVEIK
notes: CDR-grafted variant of the IgG1-based anti-cMet antibody 1E4; also called anti-cMet candidate antibody VH4/Vk2
B2: VH0/Vk2 (antibody, V domains shown)
VH: QVQLVQSGAEVKKPGESLRISCQGSGYSFPTHWITWVRQMPGKGLEWMGTIDPTDSYNFYGPSFQGHVTISADSSSSTAYLQWSSLKASDTAMYYCARDGNYYDSRGYYYDTFDMWGQGTLVTVSS
VL: B1 VL
notes: also called anti-cMet candidate antibody VH0/Vk2
B3: VH5/Vk2 (antibody, V domains shown)
VH: B1 VH with M93V
VL: B1 VL
notes: CDR-grafted variant of the IgG1-based anti-cMet antibody 1E4; also called anti-cMet candidate antibody VH5/Vk2
B4: VH6/Vk2 (antibody, V domains shown)
VH: B1 VH with Q23K, G24A, S74K, M93V
VL: B1 VL
notes: CDR-grafted variant of the IgG1-based anti-cMet antibody 1E4; also called anti-cMet candidate antibody VH6/Vk2

The target of the assay is T1, human c-Met antigen (Sino Biological) (human, UniProt P08581 25-932).
T1 construct: Bought antigen used as the analyte in SPR; also called hepatocyte growth factor receptor; HGFR
In words: SPR (BIACORE T200). (Surface plasmon resonance follows binding to a sensor surface in real time, without labels.)
Regarding B1, the binding entry is recorded as “binds”.

Regarding B2, the binding result is “binds”.

Turning to B3, the binding entry is “binds”.

For the molecule B4, the binding entry is on record as “binds”.

For the origin of these results see patent US20200271647A1 (SEOUL NATIONAL UNIVERSITY HOSPITAL, published 2020).
